{
  "sequences": {"note": "Chains of the proteins cited; added tags and fusions are not shown.", "UniProt P08684, whole entry": "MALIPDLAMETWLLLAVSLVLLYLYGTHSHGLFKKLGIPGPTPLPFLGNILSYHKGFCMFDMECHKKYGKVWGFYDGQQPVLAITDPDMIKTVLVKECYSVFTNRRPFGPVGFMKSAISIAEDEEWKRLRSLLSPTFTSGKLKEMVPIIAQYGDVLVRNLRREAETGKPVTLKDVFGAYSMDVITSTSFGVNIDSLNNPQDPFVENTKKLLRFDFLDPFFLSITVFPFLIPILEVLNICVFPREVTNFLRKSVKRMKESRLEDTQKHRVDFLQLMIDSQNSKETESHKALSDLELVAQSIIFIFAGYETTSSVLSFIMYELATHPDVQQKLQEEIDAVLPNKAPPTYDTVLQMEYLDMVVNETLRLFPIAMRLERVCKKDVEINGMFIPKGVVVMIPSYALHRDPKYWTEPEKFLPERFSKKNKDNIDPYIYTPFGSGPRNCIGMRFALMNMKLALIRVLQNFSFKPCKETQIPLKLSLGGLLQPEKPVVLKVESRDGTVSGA"},
  "source": "ChEMBL document CHEMBL3112424",
  "about": "“Discovery and optimization of pyrimidone indoline amide PI3Kβ inhibitors for the treatment of phosphatase and tensin homologue (PTEN)-deficient cancers” (J Med Chem, 2014)",
  "key": {"Cytochrome P450 3A4": {"biological_target": "Cytochrome P450 3A4 (Homo sapiens, UniProt P08684)", "assay": "Inhibition of recombinant human CYP3A4"}, "[1]": {"assay": "Apparent permeability in human Caco2 cells at 5 uM after 20 mins", "conditions": "Caco-2"}, "[2]": {"assay": "Solubility of the compound in phosphate buffer at pH 7.4 by HPLC analysis"}},
  "data": [
    {"smiles": "O=C(Cc1nc(N2CCOCC2)cc(=O)[nH]1)N1CCc2c(F)cccc21", "values": [
      {"measurement": "IC50", "setting": "Cytochrome P450 3A4", "value": 40, "unit": "µM"},
      {"measurement": "Papp at 20 min, 5 µM", "setting": "[1]", "value": 5.4, "unit": "×10⁻⁶ cm/s"},
      {"measurement": "solubility", "setting": "[2]", "value": 14, "unit": "µM"}
    ]}
  ]
}
